The values that follow come from publication PMC4503752.

Sequences of proteins named here, by UniProt entry; tags and fusion partners are left off.
UniProt O88569: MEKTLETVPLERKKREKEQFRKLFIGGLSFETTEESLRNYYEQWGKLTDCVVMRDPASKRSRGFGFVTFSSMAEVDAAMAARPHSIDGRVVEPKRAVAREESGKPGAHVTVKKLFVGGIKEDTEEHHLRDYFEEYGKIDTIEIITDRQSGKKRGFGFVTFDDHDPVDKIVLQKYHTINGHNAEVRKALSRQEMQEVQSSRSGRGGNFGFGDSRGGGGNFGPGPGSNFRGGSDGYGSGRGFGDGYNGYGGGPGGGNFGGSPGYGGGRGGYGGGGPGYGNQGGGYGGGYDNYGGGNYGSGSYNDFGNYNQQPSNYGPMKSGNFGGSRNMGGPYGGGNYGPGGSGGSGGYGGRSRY

In the test the target is Argonaute 1 (AGO1) (mouse (endogenous in ADSCs)) (UniProt Q8CJG1). In words: affinity purification with mass spectrometry; RISC / AGO1 complex immunoprecipitated from Dicer-deficient ADSCs with or without miR-369 transfection; gel separation, silver staining, LC-MS/MS.

These are yes or no findings as the source states them, for the method shown. In cells and extracts the contact can be indirect. A yes stands for co-enrichment or nearness to the bait. Other partners may have been found.

With “HNRNPA2B1 (heterogeneous nuclear ribonucleoprotein A2/B1) (from UniProt O88569 1-353)”, the binding entry is “binds”.
